# Entries after “also recorded” stand apart in the source; their conditions may differ. At least one peptide structure holds a part that was inferred or is arguable (an end, a ring closure or a residue). Where no end group is shown, it is not given here.
# By UniProt entry, the sequences of proteins in these tests, tags left out.
# UniProt Q14974, whole entry: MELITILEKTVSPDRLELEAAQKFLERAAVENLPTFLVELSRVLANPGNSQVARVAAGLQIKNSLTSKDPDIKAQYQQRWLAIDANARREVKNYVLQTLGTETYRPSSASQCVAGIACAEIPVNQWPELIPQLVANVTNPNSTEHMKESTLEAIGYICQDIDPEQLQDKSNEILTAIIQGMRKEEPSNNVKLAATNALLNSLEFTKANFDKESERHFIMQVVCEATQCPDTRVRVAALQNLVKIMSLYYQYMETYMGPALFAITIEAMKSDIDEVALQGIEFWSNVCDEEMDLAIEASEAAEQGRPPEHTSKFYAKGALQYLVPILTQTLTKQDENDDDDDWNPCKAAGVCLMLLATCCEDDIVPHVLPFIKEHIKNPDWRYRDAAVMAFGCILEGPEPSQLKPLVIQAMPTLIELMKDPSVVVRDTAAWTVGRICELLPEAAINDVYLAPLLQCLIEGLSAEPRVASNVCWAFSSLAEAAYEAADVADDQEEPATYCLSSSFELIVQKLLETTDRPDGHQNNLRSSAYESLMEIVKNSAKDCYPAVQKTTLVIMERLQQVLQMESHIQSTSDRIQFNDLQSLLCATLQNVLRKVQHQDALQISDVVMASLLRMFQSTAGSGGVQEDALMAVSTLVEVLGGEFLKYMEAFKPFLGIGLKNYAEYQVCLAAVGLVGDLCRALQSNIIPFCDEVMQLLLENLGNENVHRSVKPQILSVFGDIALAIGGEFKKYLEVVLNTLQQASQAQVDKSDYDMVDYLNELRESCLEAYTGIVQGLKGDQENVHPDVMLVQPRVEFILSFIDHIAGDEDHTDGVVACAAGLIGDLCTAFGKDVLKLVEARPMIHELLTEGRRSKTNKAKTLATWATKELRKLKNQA
# Tests used:
# [1] = tested on: calcineurin (CnA); experiment: CnA phosphatase activity (specific phosphosubstrate RII, Biomol kit); assay type: biochemical; conditions: neonatal rat cardiomyocytes, Ang II; FIG. 5A top
# Description: (§1) Neonatal rat cardiomyocytes of Wistar rats were isolated as described previously (Ritter et al., 2003). Cells were resuspended in minimum essential medium/1% FCS. After preplating, the cardiomyocyte containing supernatant was recovered, and cells were plated in minimum essential medium on 6-well plates at a density of 1×10^6 cells per well. The medium for cardiomyocytes contained 5-bromo-2′-deoxyuridine (0.1 mmol/L) to suppress fibroblast growth. Fibroblast contamination of cardiomyocyte cultures was between 4% and 7% as regularly determined by immunohistochemical staining for troponin T. HeLa cells were grown in DMEM/5% FCS (Sigma). […]
# (§2) NF-ATc reporter plasmid comprised the II-2 promoter followed by luciferase. Luciferase activity was determined according to the manufacturer's protocol (Promega). CnA phosphatase activity was determined using a commercial kit (CnA kit assay, Biomol) that measures effect on a specific CnA phosphosubstrate. […]
# (§3) Phosphatase activity, transcriptional activity, protein synthesis, cell size and makers of myocardial hypertrophy in response to the peptide related inhibition of CnA nuclear import were examined. Phosphatase activity was assessed employing a specific substrate (RII) for can (Ritter et al., 2002). Cardiomyocytes were stimulated with Ang II (10 μM), and CnA phosphatase activity was measured in the presence of the NLS peptide or a non sense control peptide. […]
# [2] = target: T1, calcineurin (CnA)/importin β1 interaction (Homo sapiens, UniProt Q14974); experiment: Peptide competition / co-immunoprecipitation of calcineurin with importin β1; assay type: binding; conditions: HeLa cells transfected with GFP-tagged CnA mutants (FIG. 3)
# T1 construct: expressed in transfected cells; host or cells: HeLa cells (importin β1 endogenous, EGFP-CnAβ transfected)
# Description: Immunoprecipitation of the CnA/importin complexes was performed with importin β1 antibodies, detection with a GFP antibody.
# Epitope-tagged derivatives of calcineurin Aβ containing amino-terminal EGFP were generated using the mammalian expression vector pEGFP-C3 (BD Bioscience Clontech). For cloning of calcineurin mutants the mammalian expression vector pCMV-Sport6 containing the directionally cloned cDNA of human calcineurin Aβ was used (Invitrogen). The following mutants have been amplified by PCR, digested with XbaI and XhoI and cloned into the XbaI and XhoI sites of the described plasmid: CnAβ(full), CnAβ 1-415, CnAβ 1-425, CnAβ 1-445, CnAβ 1-465, CnAβ 1-485 and CnAβ 171-190. For these truncated mutants different reverse oligonucleotides were designed with subsequent N-terminal binding sites. The forward primer, binding at the N-terminus of calcineurin, was identical for each plasmid apart from the CnA(171-190) mutant. For this derivative primers are bound upstream of aa 171 and downstream of aa 190, respectively. Two internal mutants CnAβ(Δ420-434) and CnAβ(Δ420-445) were cloned into the XbaI and XhoI sites of pEGFP-C3 using a two step strategy. […]
# (§4) The subcellular distribution of calcineurin was determined by immunofluorescence stainings. The primary antibodies used in fluorescence staining are described elsewhere (Burkhard et al., 2005). […]
# [3] = tested on: nuclear import of calcineurin (CnA) via importin β1; experiment: Peptide competition assay: nuclear import of calcineurin in cardiomyocytes; assay type: cell-based; conditions: neonatal rat cardiomyocytes stimulated with Ang II; peptide added to the medium (1 μM)
# Description: (§5) Neonatal rat cardiomyocytes were incubated with a peptide mimicking the NLS sequence of CnA (SEQ ID NO:2) and stimulated with Ang II ([…]). […] Nuclear import of CnA was therefore prevented. Control experiments were performed with a non-sense peptide SEQ ID NO: 3).
# Neonatal rat cardiomyocytes of Wistar rats were isolated as described previously (Ritter et al., 2003). Cells were resuspended in minimum essential medium/1% FCS. After preplating, the cardiomyocyte containing supernatant was recovered, and cells were plated in minimum essential medium on 6-well plates at a density of 1×10^6 cells per well. The medium for cardiomyocytes contained 5-bromo-2′-deoxyuridine (0.1 mmol/L) to suppress fibroblast growth. Fibroblast contamination of cardiomyocyte cultures was between 4% and 7% as regularly determined by immunohistochemical staining for troponin T. HeLa cells were grown in DMEM/5% FCS (Sigma). 48 hours after preparation, cells were stimulated with […] angiotensin II (Ang II). Cells were harvested 24 hours after stimulation. Concentrations were as follows: Ang II: 10 μM, calpeptin: 10 μM, NLS peptide and control peptide: 1 μM, respectively.
# as §4
# [4] = tested on: CnA/NF-ATc signalling pathway; experiment: NF-ATc luciferase reporter plasmid transcriptional activity; assay type: cell-based; conditions: neonatal rat cardiomyocytes, Ang II; FIG. 5A bottom, FIG. 5D
# Description: as §1, §2, §3
# [5] = tested on: neonatal rat cardiomyocytes; experiment: Markers of myocardial hypertrophy in Ang II stimulated cardiomyocytes (protein synthesis, cell size, BNP); assay type: cell-based
# Description: as §5, §1, §3
sequence,measurement,setting,value
KQECKIKYSERV [SEQ ID NO: 2],phosphatase activity of CnA (in words),[1],not influenced
same,calcineurin interaction/binding with importin β1,[2],abrogated calcineurin interaction with importin β1; also recorded: saturated CnA/importin β1 binding capacity
same,nuclear import (translocation) of CnA,[3],prevented
same,"transcriptional activity of calcineurin/NF-ATc (NF-ATc luciferase reporter plasmid), in words",[4],suppressed; also recorded: dose dependent decrease
same,"development of myocardial hypertrophy (protein synthesis, cell size), in words",[5]; FIG. 5B,suppressed
same,"B-type natriuretic peptide (BNP), molecular marker of hypertrophy, in words",[5]; FIG. 5C,suppressed
